Measurements reported in doi:10.1101/2021.08.24.457465.
Where a protein sequence is shown, tags need not be part of it. For some assays here: The exact form of at least one protein or probe is not confirmed.

Key:
[1] = target: T1, ToPif1 (wild type) (Thermus oshimai) (UniProt K7RJ88); test: fluorescence anisotropy; settings: 0.5 mM ADP·AlF4, 2 mM Mg2+, text: bound only weakly; residues 64-507
T1 sequence (looked up): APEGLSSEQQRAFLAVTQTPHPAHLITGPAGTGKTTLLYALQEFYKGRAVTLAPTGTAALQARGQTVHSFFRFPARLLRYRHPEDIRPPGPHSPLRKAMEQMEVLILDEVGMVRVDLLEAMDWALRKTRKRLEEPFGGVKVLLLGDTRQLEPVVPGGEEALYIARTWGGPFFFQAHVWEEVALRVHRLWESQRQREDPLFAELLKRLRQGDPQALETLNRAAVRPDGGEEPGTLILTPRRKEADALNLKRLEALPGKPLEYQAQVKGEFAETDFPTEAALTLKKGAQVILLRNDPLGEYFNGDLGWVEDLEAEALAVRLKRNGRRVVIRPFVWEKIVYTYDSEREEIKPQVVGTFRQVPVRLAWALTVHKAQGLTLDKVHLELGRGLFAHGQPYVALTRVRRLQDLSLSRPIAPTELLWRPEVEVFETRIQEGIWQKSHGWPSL

[2] = target: T1, ToPif1 (wild type) (Thermus oshimai); test: X-ray crystallography; settings: ADP·AlF4; residues 64-507

Sequence “GCCCTGGTGCCGACCAACGAAGGT (double strand) [D24]” has a Kd [1] of over 250 nM.

GGTTTGGTTTGGTTTGG [GR17]: binds [2].
